These are yes or no findings as the source states them, for the method shown. Binding seen in cells or lysates may run through a third protein. Some binding calls cover weakened binding; strength is not graded here. Sequences can lack the tags named with a protein.
Biological target: T1, FLAG-tagged CLDN11-3F (claudin 11) (human) (UniProt O75508)
T1 sequence: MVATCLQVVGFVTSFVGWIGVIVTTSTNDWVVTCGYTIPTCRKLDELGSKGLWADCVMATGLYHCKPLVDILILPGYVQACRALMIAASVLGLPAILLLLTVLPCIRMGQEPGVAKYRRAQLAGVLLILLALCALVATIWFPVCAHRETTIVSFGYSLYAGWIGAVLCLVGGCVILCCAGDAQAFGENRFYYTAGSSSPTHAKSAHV
Test: co-IP; FLAG-tagged CLDN11-3F or vector control transiently overexpressed in NPC cells; precipitated with Flag M2 beads; endogenous TUBA1B and TUBB3 detected by immunoblot

By UniProt entry, the sequences of proteins in these tests, tags left out.
UniProt P68363: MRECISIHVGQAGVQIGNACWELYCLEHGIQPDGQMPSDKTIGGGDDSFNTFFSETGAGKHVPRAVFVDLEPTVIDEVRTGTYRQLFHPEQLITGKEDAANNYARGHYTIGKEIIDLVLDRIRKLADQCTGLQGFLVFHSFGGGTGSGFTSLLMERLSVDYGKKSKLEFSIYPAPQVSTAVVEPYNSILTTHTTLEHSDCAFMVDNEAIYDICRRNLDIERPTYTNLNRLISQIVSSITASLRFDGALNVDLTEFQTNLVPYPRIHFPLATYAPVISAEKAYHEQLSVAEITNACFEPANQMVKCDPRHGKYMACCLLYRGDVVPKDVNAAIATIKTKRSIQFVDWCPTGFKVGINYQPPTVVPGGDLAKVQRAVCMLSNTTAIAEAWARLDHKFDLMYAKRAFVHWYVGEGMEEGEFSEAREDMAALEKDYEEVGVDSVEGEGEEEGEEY
UniProt Q13509: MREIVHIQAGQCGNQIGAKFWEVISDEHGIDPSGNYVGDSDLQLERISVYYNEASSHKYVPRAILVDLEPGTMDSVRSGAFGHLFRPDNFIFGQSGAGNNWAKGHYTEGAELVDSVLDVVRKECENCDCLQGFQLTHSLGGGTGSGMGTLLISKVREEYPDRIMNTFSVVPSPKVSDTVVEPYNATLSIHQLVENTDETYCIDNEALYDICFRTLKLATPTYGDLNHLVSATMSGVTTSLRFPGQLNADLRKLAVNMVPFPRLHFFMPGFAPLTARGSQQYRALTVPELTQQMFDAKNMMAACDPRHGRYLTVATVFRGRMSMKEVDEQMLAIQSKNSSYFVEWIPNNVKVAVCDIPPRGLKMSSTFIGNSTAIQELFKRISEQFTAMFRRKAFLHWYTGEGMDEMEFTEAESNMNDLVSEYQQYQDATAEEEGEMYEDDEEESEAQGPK

| Substance | binding |
| --- | --- |
| tubulin alpha-1B (TUBA1B) (from UniProt P68363 1-451) | binds |
| tubulin beta-3 (TUBB3) (from UniProt Q13509 1-450) | binds |
